Among all 53,000 sequences or so, about 3,700 (7%) were called active.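 How the source made its calls: active means gene knockdowns whose robust z-score for IL-1 alpha signal is at least 2 or at most -2, so actives lie on both sides; inactive means the rest.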 This is one part of the list.

This test is described as follows: Components of the Cytosolic LPS Sensing Pathway: Gene Identification via Genome-wide siRNA Screen.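 Further: robust z of the log signal after scaling to non-targeting control siRNA wells of the plate.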 Particulars: RAW264.7 macrophages, IL-1a HTRF, actives lie on both sides, screened at 100 nM (by protocol), cells primed 5 h with Pam3CSK4 first. An outline of the steps:
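RAW264.7; siRNA 100 nM final, RNAiMAX, 48h 37 degrees C; Pam3CSK4 5 h; LipidA + TransIT-TKO 24 h; IL-1a HTRF; CellTiter-Glo viability; robust z vs negative-control median.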
GCAGUGGUAAUUCGACAACTT against Rpl23: the z-score is inactive: 1.18.
With GGGCAUUUGUGAAGUAUAUTT against Zfp14 the figure was inactive: -0.646; with GGGACUCAUGGGAUUGAAATT against Rtp2, inactive: 1.07.
As for GGAUCCUCUUUUGUGGGACTT against Chst4, the figure is inactive: -1.89; as for GGCACUGAAGGAGAACCUGTT against Rbbp8nl, inactive: -0.336; as for GCUUCUACCUACGCAAUAATT against Nox4, inactive: -1.31.
With “GGUUAUUCCUAGCUUUAGCTT against Vmn1r190-ps” the figure was inactive: 1.02; with GCCAGUGGUAUGAGCUUGUTT against Ctdnep1, inactive: 0.177; with GGGAUUCACUUCACUUAAGTT against Olfr294, inactive: 0.281.
On to GCAGUUGACCACAGAAAAUTT against BC061237, for which the z-score was inactive: -1.35.
As for CCCUAAGAGAGCCUAAAACTT against Serpina3c, the figure is inactive: -1.12.
In the case of GGAACUGACUCUAAACAAATT against Slc22a6, the z-score was inactive: 0.545.
For the sequence CGAGAGUCUAACCAAGUACTT against Arhgdib, the z-score is inactive: -1.89.
With CCUAAUAACUGGACUUUAGTT against Spats2 the figure was inactive: -1.53.
As for CGAACACUAAGCUUUGAUATT against Rab11fip2, the figure is inactive: -0.493; as for GGCAGAAGCAAUGAACUAUTT against Npm1, inactive: 0.172.
As to GAAAGCGAUGGAGAUCUUATT against Pf4, the z-score is inactive: 1.03.
For the sequence GGACCUACGUCUUGUCUCCTT against Greb1, the z-score is inactive: 1.14.
On to GCGGCAACAUUCAAAGUGGTT against Itgb2l, for which the z-score is inactive: -1.94.
For the sequence GGAGGUCAGACCAGUUUACTT against Htr3b, the z-score is active: 2.15.
Regarding CCAGCUCAAGCUUUCCACATT against Olfr1105, the z-score was inactive: 1.41.
GGGAAGGAAACCUAGUAAATT against Peg12: the z-score is inactive: 0.461.
As for GGAAGCUGAUGAGAAUUACTT against Stx4a, the figure is inactive: 1.22; as for GGAAUCCUGAUGGUGAUGATT against Mttp, inactive: -1.25.
With GGACGAGCUGUAUUUGAAUTT against Gsk3a the figure was inactive: -0.663; with GCCGACUCUGGAAAUUAUCTT against Nrcam, inactive: -0.345.
With GCGCACAAAAAACAUGAUATT against Plaat5 the figure was inactive: 0.211.
Turning to GCCUGCACUGAAGUUCAAUTT against Sod2, the z-score is inactive: 1.7.
In the case of CACGCGUCGGCGCAGACUCTT against Hmx2, the z-score was inactive: -1.85.
For the sequence GGCGCAUCAUUAUUACCUCTT against Dennd1b, the z-score was inactive: 0.0167.
As to GGGUCAGGAAAAACAGCGATT against Slc15a1, the z-score was inactive: -1.63.
With CCUCACUAAGUGAGCCUUCTT against Iba57, the z-score was inactive: -0.309.
With GGUACCAACGUGUAUGGCATT against Gpaa1 the figure was inactive: 0.182; with CCGAUACUUGAACUCUUUUTT against Ctso, inactive: 0.0788; with CCAGUUUCGGAUUCAGUAGTT against Krt73, inactive: 0.263.
As for “GGCCUUCUAAAGCUGUGAUTT against 6330403K07Rik”, the figure is active: -2.7.
GCAACUAGCCUGUUCUAUCTT against Prkd2: the z-score is inactive: -0.419.
As for GGAAAUCAGCUGUGAAAAATT against Fbxl20, the figure is inactive: -0.628; as for GCAAUGGCUACGAAACACATT against Adam2, inactive: 0.983.
As for GGAACAGGCCGAGUUAGUATT against Olfr414, the figure is inactive: 1.45; as for GGCGGAAAAGCAAAUUGGUTT against Pou1f1, inactive: -0.511.
With GGUUGUUAAGGACAAAGCATT against Cox5a the figure was inactive: -1.76; with GGAUUCGAUUCUUCCAAAATT against Peli2, inactive: 1.58; with GAUCCUCAUCACAUCCGUGTT against Olfr461, inactive: -1.23.
As to CCAAUUCCAACCAGGAUUUTT against Slc26a8, the z-score is inactive: 0.933.
As for “CCAAGUCAGUGCUGUAAAGTT against F830104G03Rik”, the figure is inactive: -1.58.
As for CGAGGUGCUGAAAUCUUGGTT against Ddah1, the figure is inactive: 0.669; as for CCUUCACUGAGUUCUAUACTT against Pes1, inactive: -0.45.
As for GGUCAAAUCAUUAAGGACATT against Pdzk1, the figure is inactive: -0.0877; as for GGUCUACCUAAAACUGGAGTT against Cbln4, inactive: 0.337.
With CCGCCUCGUACAUGAUAUUTT against Mrgpra2b, the z-score is inactive: 0.653.
For CCACUGUCCCAAACAUGUUTT against Olfr847, the z-score is inactive: -1.46.
Consider GGAGAGGGUCUUAGUCAGATT against Wasf1, for which the z-score was inactive: 0.802.
On to CCAAACUUACAAAUAUGCGTT against Sgpp1, for which the z-score is inactive: 1.35.
As for GGGAAGAAACAUCAGACUATT against Sf3a2, the figure is inactive: -1.91; as for GGGCUGCUCAAAGUUUUUGTT against Myadm, inactive: 0.973.
Regarding GGAGGAGGAGCCAGAAAAGTT against Zswim2, the z-score is inactive: 0.296.
With GGAACUGGAUCCUAGGAUATT against Sh3bp5l the figure was inactive: -1.35.
For the sequence GCUACAAGGAACAUUAAAGTT against Sacs, the z-score is inactive: -0.563.
As for CCCGAACCAAGGACAAGUATT against Cdx1, the z-score is inactive: -1.94.
As for GGAAGCUACCUGGAUAUCUTT against Astn2, the figure is inactive: 0.0365.
Consider GGGUUUGGUCGUAAACAGCTT against Limd2, for which the z-score is inactive: -1.06.
As for GGACAGCCAUCUUGAUUUATT against Gstt2, the figure is inactive: 0.15.
With GGUUGGACACGAAAGCUUATT against Mecp2 the figure was inactive: -1.22.
Turning to GGUGGUGUCAAAAUGAAGCTT against Septin3, the z-score was inactive: -0.226.
With GCUUUAAGCCCUGCUCUGUTT against Saxo2 the figure was inactive: -0.187; with GGAGAACCCAUUAAAGAAATT against Amd1, inactive: 0.408.
As for GGACUAUGGCAAAGAAUCUTT against Rps12, the figure is inactive: 0.0955.

These data come from PubChem BioAssay AID1508600 (Functional Genomics Laboratory (NCATS/FGL), 2020).
